{
  "source": "patent US20220331309A1",
  "about": "“PHARMACEUTICAL COMPOSITION FOR TREATING INSOMNIA” (priority 2019, published 2022)",
  "test": "Single dose administration test of lemborexant in healthy adults (Test Example 3)",
  "type": "in vivo, human",
  "experimental": "In 64 cases of healthy adults under a feed-deprived condition, the pharmacokinetics of lemborexant administered with single doses of 1, 2.5, 5, 10, 25, 50, 100, and 200 mg thereof was examined by a randomized, double-blinded, placebo-controlled, multi-stage single administration test. In each group, lemborexant was administered to six cases, and the placebo was administered to two cases.\nThe transition of the mean lemborexant concentration in the plasma when single doses of 1, […], 10, 25, 50, 100, and 200 mg lemborexant were administered to the healthy adults is shown in FIG. 1.",
  "data": [
    {"smiles": "Cc1ncc(OC[C@@]2(c3cccc(F)c3)C[C@H]2C(=O)Nc2ccc(F)cn2)c(C)n1", "note": "[lemborexant, (1R,2S)-2-(((2,4-dimethylpyrimidin-5-yl)oxy)methyl)-2-(3-fluorophenyl)-N-(5-fluoropyridin-2-yl)cyclopropanecarboxamide]", "values": [
      {"measurement": "correlation between plasma concentration and pharmacodynamic evaluations (DSST, PVT, KSS)", "setting": "dose of 10 mg or more", "value": "a correlation was found"},
      {"measurement": "correlation between plasma concentration and pharmacodynamic evaluations (DSST, PVT, KSS)", "setting": "dose up to 5 mg", "value": "the correlation was barely found"}
    ]}
  ]
}
